The chains behind the UniProt entries cited, without tags or fusion partners. Where a name states a change or a piece, a line headed by the entry shows the natural chain unless it says otherwise.
UniProt P10749: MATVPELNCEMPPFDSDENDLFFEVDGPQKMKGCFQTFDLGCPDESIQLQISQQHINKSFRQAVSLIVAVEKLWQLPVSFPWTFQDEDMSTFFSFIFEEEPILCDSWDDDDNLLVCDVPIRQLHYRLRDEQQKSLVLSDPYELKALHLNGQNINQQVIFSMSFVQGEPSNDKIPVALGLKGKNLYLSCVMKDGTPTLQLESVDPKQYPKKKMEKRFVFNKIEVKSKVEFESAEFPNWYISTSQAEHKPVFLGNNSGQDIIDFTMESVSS

In paper PMC5324553:

Target: T1, Flag-USP50 (ubiquitin-specific peptidase 50) (UniProt Q70EL3)
T1 sequence: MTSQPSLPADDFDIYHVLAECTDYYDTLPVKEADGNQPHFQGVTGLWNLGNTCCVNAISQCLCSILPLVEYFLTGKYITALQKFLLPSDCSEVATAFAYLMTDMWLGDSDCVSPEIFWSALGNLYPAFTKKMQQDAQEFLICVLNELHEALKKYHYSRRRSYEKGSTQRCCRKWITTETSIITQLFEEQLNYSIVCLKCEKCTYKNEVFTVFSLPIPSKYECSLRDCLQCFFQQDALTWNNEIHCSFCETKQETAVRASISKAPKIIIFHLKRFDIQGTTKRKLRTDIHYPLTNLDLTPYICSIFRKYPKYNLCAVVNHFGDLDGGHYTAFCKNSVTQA
Assay: co-IP; HEK293 cells co-transfected with an HA-tagged inflammasome component and Flag-USP50; lysates immunoprecipitated with Flag antibody and immunoblotted

HA-pro-IL-1β (from UniProt P10749) was tested, and the binding was “no binding”.

Results are given in words; binding and its absence hold for the method and conditions named. Binding seen in cells or lysates may run through a third protein. Tags and fused reporters may be left off the sequences shown.
